Reference: paper PMC4923194, “The Crystal Structure of the C-Terminal Domain of the Salmonella enterica PduO Protein: An Old Fold with a New Heme-Binding Mode” (Frontiers in Microbiology, 2016)
These are yes or no findings as the source states them, for the method shown. Some binding calls cover weakened binding; strength is not graded here.

Experiments:
[1] = target: C-terminal domain of the Salmonella enterica PduO protein (PduOC) (Salmonella enterica subsp. enterica serovar Typhimurium); experiment: SDS-PAGE of unboiled sample; 15 ug of isolated His-tag-free PduOC, unboiled and boiled, stained with PageBlue; both purified
[2] = target: C-terminal domain of the Salmonella enterica PduO protein (PduOC) (Salmonella enterica subsp. enterica serovar Typhimurium); experiment: crystal structure; PduOC co-crystallized with heme; 0.1 M magnesium formate, 15% (w/v) PEG 3350; protein in 20 mM Tris/HCl pH 7; space group P21; both purified

binding [1]: binds
binding [2]: binds
Substance: C-terminal domain of the Salmonella enterica PduO protein (PduOC) (from UniProt A0A0F6B395 194-336) (domain or fragment)
